{"source": "the supplement of paper PMC4635364", "key": {"ReNCell VM [1]": {"tested_on": "ReNCell VM", "experiment": "neuronal differentiation score (DCX+ cell fraction vs untreated, manual image score) (score (-3 to 3)); higher = more neuronal differentiation", "details": "2 uM, 2 weeks"}, "ReNCell VM [2]": {"tested_on": "ReNCell VM", "experiment": "dopaminergic neuron differentiation score (TH+ cell fraction vs untreated, manual image score) (score (0 to 3)); higher = more TH+ dopaminergic neuron differentiation", "details": "2 uM, 4 weeks, BDNF 10 ng/ml + GDNF 10 ng/ml"}}, "note": "Where a name gives a salt, the structure may show the parent alone. This is one part of the list. This data set is noisy: repeats of one test often differ as much as different tests do.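 Cells: ReNCell VM human fetal ventral-midbrain neural progenitors, differentiated mitogen-free. Blinded raters compared doublecortin-stained (early neurons) or tyrosine hydroxylase-stained (dopaminergic neurons) images with untreated wells, where 0 means no change. After repeats and both raters were averaged, compounds scoring 2 or above became hits for retesting.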"}
{"smiles": "CC(C)NC[C@@H](O)COc1ccc(CC(N)=O)cc1", "note": "[(R)-(+)-Atenolol]", "values": [{"measurement": "neuronal differentiation score", "setting": "ReNCell VM [1]; library: Prestwick", "result": "inactive: 0"}, {"measurement": "dopaminergic neuron differentiation score", "setting": "ReNCell VM [2]; library: Prestwick", "result": "inactive: 0"}]}
{"smiles": "CC(=O)O[C@@]12CO[C@@H]1C[C@H](O)[C@@]1(C)C(=O)[C@H](O)C3=C(C)[C@@H](OC(=O)[C@H](O)[C@@H](NC(=O)OC(C)(C)C)c4ccccc4)C[C@@](O)([C@@H](OC(=O)c4ccccc4)[C@H]21)C3(C)C", "note": "[Docetaxel]", "values": [{"measurement": "neuronal differentiation score", "setting": "ReNCell VM [1]; library: Prestwick", "result": "inactive: 0"}, {"measurement": "dopaminergic neuron differentiation score", "setting": "ReNCell VM [2]; library: Prestwick", "result": "inactive: 0"}]}
{"smiles": "C[C@@H]1O[C@@H](OC[C@H]2O[C@@H](Oc3c(-c4ccc(OCCO)c(OCCO)c4)oc4cc(OCCO)cc(O)c4c3=O)[C@H](O)[C@@H](O)[C@@H]2O)[C@H](O)[C@H](O)[C@H]1O", "values": [{"measurement": "neuronal differentiation score", "setting": "ReNCell VM [1]; library: Spectrum", "result": "inactive: 0"}, {"measurement": "dopaminergic neuron differentiation score", "setting": "ReNCell VM [2]; library: Spectrum", "result": "inactive: 0"}]}
{"smiles": "c1ccc2sc(N3CCN(Cc4ccc5c(c4)OCO5)CC3)nc2c1", "note": "[2-[1-(4-Piperonyl)piperazinyl]benzothiazole]", "values": [{"measurement": "neuronal differentiation score", "setting": "ReNCell VM [1]; library: Tocriscreen", "result": "inactive: 0"}, {"measurement": "dopaminergic neuron differentiation score", "setting": "ReNCell VM [2]; library: Tocriscreen", "result": "active: 3"}]}
{"smiles": "NC[C@@H]1CC[C@@H](N)[C@@H](O[C@H]2[C@H](O)[C@@H](O[C@H]3O[C@H](CO)[C@@H](O)[C@H](N)[C@H]3O)[C@H](N)C[C@@H]2N)O1", "values": [{"measurement": "neuronal differentiation score", "setting": "ReNCell VM [1]; library: Spectrum", "result": "inactive: 0"}, {"measurement": "dopaminergic neuron differentiation score", "setting": "ReNCell VM [2]; library: Spectrum", "result": "inactive: 0"}]}
{"smiles": "CC(C)[C@@H]1CC[C@@H](C)C[C@H]1O", "values": [{"measurement": "neuronal differentiation score", "setting": "ReNCell VM [1]; library: Spectrum", "result": "inactive: 0"}, {"measurement": "dopaminergic neuron differentiation score", "setting": "ReNCell VM [2]; library: Spectrum", "result": "inactive: 0"}]}
{"smiles": "Nc1nc(=O)c2nc(CNc3ccc(C(=O)N[C@@H](CCC(=O)O)C(=O)O)cc3)cnc2[nH]1", "note": "[Folic acid]", "values": [{"measurement": "neuronal differentiation score", "setting": "ReNCell VM [1]; library: Prestwick", "result": "inactive: 0"}, {"measurement": "dopaminergic neuron differentiation score", "setting": "ReNCell VM [2]; library: Prestwick", "result": "inactive: 0"}]}
{"smiles": "COc1ccc(OC)c(C(O)CNC(=O)CN)c1", "note": "(stereo unspecified)", "values": [{"measurement": "neuronal differentiation score", "setting": "ReNCell VM [1]; library: Spectrum", "result": "inactive: -1"}, {"measurement": "dopaminergic neuron differentiation score", "setting": "ReNCell VM [2]; library: Spectrum", "result": "inactive: 0"}]}
{"smiles": "CC(C)(C)n1nc(-c2cccc3ccccc23)c2c(N)ncnc21", "note": "[1-Naphthyl PP1]", "values": [{"measurement": "neuronal differentiation score", "setting": "ReNCell VM [1]; library: Tocriscreen", "result": "inactive: 0"}, {"measurement": "dopaminergic neuron differentiation score", "setting": "ReNCell VM [2]; library: Tocriscreen", "result": "active: 3"}]}
{"smiles": "O=C1OCCN1/N=C/c1ccc([N+](=O)[O-])o1", "values": [{"measurement": "neuronal differentiation score", "setting": "ReNCell VM [1]; library: Spectrum", "result": "inactive: 0"}, {"measurement": "dopaminergic neuron differentiation score", "setting": "ReNCell VM [2]; library: Spectrum", "result": "inactive: 0"}]}
{"smiles": "O=c1c(O)cccc2cc(O)c(O)c(O)c12", "values": [{"measurement": "neuronal differentiation score", "setting": "ReNCell VM [1]; library: Spectrum", "result": "inactive: 0"}, {"measurement": "dopaminergic neuron differentiation score", "setting": "ReNCell VM [2]; library: Spectrum", "result": "inactive: 0"}]}
{"smiles": "CNC(=O)c1c(I)c(NC(C)=O)c(I)c(C(=O)O)c1I", "values": [{"measurement": "neuronal differentiation score", "setting": "ReNCell VM [1]; library: Spectrum", "result": "inactive: 0"}, {"measurement": "dopaminergic neuron differentiation score", "setting": "ReNCell VM [2]; library: Spectrum", "result": "inactive: 0"}]}
{"smiles": "O=C(O)[C@H]1O[C@@H](Oc2cc3oc(-c4ccccc4)cc(=O)c3c(O)c2O)[C@H](O)[C@@H](O)[C@@H]1O", "note": "[Baicalin]", "values": [{"measurement": "neuronal differentiation score", "setting": "ReNCell VM [1]; library: Phytochemical", "result": "inactive: 0"}, {"measurement": "dopaminergic neuron differentiation score", "setting": "ReNCell VM [2]; library: Phytochemical", "result": "inactive: 0"}]}
{"smiles": "COCCCC/C(=N\\OCCN)c1ccc(C(F)(F)F)cc1", "values": [{"measurement": "neuronal differentiation score", "setting": "ReNCell VM [1]; library: Spectrum", "result": "inactive: 0"}, {"measurement": "dopaminergic neuron differentiation score", "setting": "ReNCell VM [2]; library: Spectrum", "result": "inactive: 0"}]}
{"smiles": "CC(=O)OC/C=C(\\C)CC/C=C(\\C)CC/C=C(\\C)CC/C=C(\\C)CC/C=C(\\C)CC/C=C(\\C)CC/C=C(\\C)CC/C=C(\\C)CCC=C(C)C", "values": [{"measurement": "neuronal differentiation score", "setting": "ReNCell VM [1]; library: Spectrum", "result": "inactive: 0"}, {"measurement": "dopaminergic neuron differentiation score", "setting": "ReNCell VM [2]; library: Spectrum", "result": "inactive: 0"}]}
{"smiles": "COc1cc(C(=O)O)cc(OC)c1O", "values": [{"measurement": "neuronal differentiation score", "setting": "ReNCell VM [1]; library: Spectrum", "result": "inactive: 0"}, {"measurement": "dopaminergic neuron differentiation score", "setting": "ReNCell VM [2]; library: Spectrum", "result": "inactive: 0"}]}
{"smiles": "COC(=O)[C@@H]1[C@H]2C[C@H]3c4[nH]c5ccccc5c4CCN3C[C@@H]2CC[C@@H]1O", "values": [{"measurement": "neuronal differentiation score", "setting": "ReNCell VM [1]; library: Spectrum", "result": "inactive: -1"}, {"measurement": "dopaminergic neuron differentiation score", "setting": "ReNCell VM [2]; library: Spectrum", "result": "inactive: 0"}]}
{"smiles": "COc1ccc(CCN(C)CCCOc2ccc(S(=O)(=O)c3c(C(C)C)c4ccccc4n3C)cc2)cc1OC", "values": [{"measurement": "neuronal differentiation score", "setting": "ReNCell VM [1]; library: Tocriscreen", "result": "inactive: -1"}, {"measurement": "dopaminergic neuron differentiation score", "setting": "ReNCell VM [2]; library: Tocriscreen", "result": "inactive: 0"}]}
{"smiles": "CN(CCOc1ccc(-c2ccc3c(c2)OCO3)cc1C(C)(C)C)CC(=O)O", "values": [{"measurement": "neuronal differentiation score", "setting": "ReNCell VM [1]; library: Tocriscreen", "result": "inactive: 0"}, {"measurement": "dopaminergic neuron differentiation score", "setting": "ReNCell VM [2]; library: Tocriscreen", "result": "inactive: 0"}]}
{"smiles": "CN[C@@H]1[C@H](O[C@H]2[C@H](O[C@H]3[C@H](O)[C@@H](O)[C@H](N=C(N)N)[C@@H](O)[C@@H]3N=C(N)N)O[C@@H](C)[C@]2(O)C=O)O[C@@H](CO)[C@H](O)[C@H]1O", "note": "[Streptomycin sulfate]", "values": [{"measurement": "neuronal differentiation score", "setting": "ReNCell VM [1]; library: Prestwick", "result": "inactive: 0"}, {"measurement": "dopaminergic neuron differentiation score", "setting": "ReNCell VM [2]; library: Prestwick", "result": "inactive: 0"}]}
{"smiles": "CC(C)NC[C@H](O)c1ccc(O)c(O)c1", "note": "[R(-)-Isoproterenol (+)-bitartrate]", "values": [{"measurement": "neuronal differentiation score", "setting": "ReNCell VM [1]; library: LOPAC", "result": "inactive: 0"}, {"measurement": "dopaminergic neuron differentiation score", "setting": "ReNCell VM [2]; library: LOPAC", "result": "active: 3"}]}
{"smiles": "NC(=O)c1ccc(-c2nc(-c3ccccn3)c(-c3ccc4c(c3)OCO4)[nH]2)cc1", "values": [{"measurement": "neuronal differentiation score", "setting": "ReNCell VM [1]; library: Tocriscreen", "result": "inactive: 0"}, {"measurement": "dopaminergic neuron differentiation score", "setting": "ReNCell VM [2]; library: Tocriscreen", "result": "inactive: 0"}]}
{"smiles": "O=C1c2ccccc2C(=O)C1c1ccc(Br)cc1", "values": [{"measurement": "neuronal differentiation score", "setting": "ReNCell VM [1]; library: Spectrum", "result": "inactive: 0"}, {"measurement": "dopaminergic neuron differentiation score", "setting": "ReNCell VM [2]; library: Spectrum", "result": "inactive: 0"}]}
{"smiles": "COc1c(O)cc2c(c1O)[C@@H]1O[C@H](CO)[C@@H](O)[C@H](O)[C@H]1OC2=O", "values": [{"measurement": "neuronal differentiation score", "setting": "ReNCell VM [1]; library: Spectrum", "result": "inactive: 0"}, {"measurement": "dopaminergic neuron differentiation score", "setting": "ReNCell VM [2]; library: Spectrum", "result": "inactive: 0"}]}
{"smiles": "CC1(C)C(O[C@@H]2OC[C@@H](O)[C@H](O)[C@H]2O)CC[C@]23CC24CC[C@]2(C)[C@@H]([C@@]5(C)CC[C@@H](C(C)(C)O)O5)[C@H](O)C[C@@]2(C)C4C[C@@H](O[C@@H]2O[C@H](CO)[C@@H](O)[C@H](O)[C@H]2O)C13", "note": "(stereo partly specified)", "values": [{"measurement": "neuronal differentiation score", "setting": "ReNCell VM [1]; library: Spectrum", "result": "inactive: 0"}, {"measurement": "dopaminergic neuron differentiation score", "setting": "ReNCell VM [2]; library: Spectrum", "result": "inactive: 0"}]}
{"smiles": "N=C(N)c1ccccc1", "note": "[Benzamidine hydrochloride]", "values": [{"measurement": "neuronal differentiation score", "setting": "ReNCell VM [1]; library: LOPAC", "result": "inactive: 0"}, {"measurement": "dopaminergic neuron differentiation score", "setting": "ReNCell VM [2]; library: LOPAC", "result": "inactive: 0"}]}
{"smiles": "COc1ccc2[nH]c(-c3ccccc3)c(CCNC(C)=O)c2c1", "note": "[2-Phenylmelatonin]", "values": [{"measurement": "neuronal differentiation score", "setting": "ReNCell VM [1]; library: Tocriscreen", "result": "inactive: 0"}, {"measurement": "dopaminergic neuron differentiation score", "setting": "ReNCell VM [2]; library: Tocriscreen", "result": "inactive: 0"}]}
{"smiles": "O=C(/C=C/C(=O)Oc1ccccc1C(=O)O)Oc1ccccc1C(=O)O", "values": [{"measurement": "neuronal differentiation score", "setting": "ReNCell VM [1]; library: Spectrum", "result": "inactive: 0"}, {"measurement": "dopaminergic neuron differentiation score", "setting": "ReNCell VM [2]; library: Spectrum", "result": "inactive: 0"}]}
{"smiles": "CN1CCN(C2=Nc3cc(Cl)ccc3Nc3ccccc32)CC1", "values": [{"measurement": "neuronal differentiation score", "setting": "ReNCell VM [1]; library: Spectrum", "result": "inactive: 0"}, {"measurement": "dopaminergic neuron differentiation score", "setting": "ReNCell VM [2]; library: Spectrum", "result": "inactive: 0"}]}
{"smiles": "CCOC(=O)[N-]c1c[n+](N2CCOCC2)no1", "values": [{"measurement": "neuronal differentiation score", "setting": "ReNCell VM [1]; library: Spectrum", "result": "inactive: 0"}, {"measurement": "dopaminergic neuron differentiation score", "setting": "ReNCell VM [2]; library: Spectrum", "result": "inactive: 0"}]}
{"smiles": "C[C@H](NC[C@H](O)CP(=O)(O)CC1CCCCC1)c1ccc(Cl)c(Cl)c1", "values": [{"measurement": "neuronal differentiation score", "setting": "ReNCell VM [1]; library: Tocriscreen", "result": "inactive: 0"}, {"measurement": "dopaminergic neuron differentiation score", "setting": "ReNCell VM [2]; library: Tocriscreen", "result": "inactive: 0"}]}
{"smiles": "CC(C)Oc1ccc2c(=O)c(-c3ccccc3)coc2c1", "values": [{"measurement": "neuronal differentiation score", "setting": "ReNCell VM [1]; library: Spectrum", "result": "inactive: 0"}, {"measurement": "dopaminergic neuron differentiation score", "setting": "ReNCell VM [2]; library: Spectrum", "result": "inactive: 0"}]}
{"smiles": "C#CCN(C)Cc1ccccc1", "values": [{"measurement": "neuronal differentiation score", "setting": "ReNCell VM [1]; library: Spectrum", "result": "inactive: 0"}, {"measurement": "dopaminergic neuron differentiation score", "setting": "ReNCell VM [2]; library: Spectrum", "result": "inactive: 0"}]}
